PMC5824958
Results are given in words; binding and its absence hold for the method and conditions named. In cells and extracts the contact can be indirect. Some binding calls cover weakened binding; strength is not graded here.

The chains behind the UniProt entries cited, without tags or fusion partners.
UniProt P07825: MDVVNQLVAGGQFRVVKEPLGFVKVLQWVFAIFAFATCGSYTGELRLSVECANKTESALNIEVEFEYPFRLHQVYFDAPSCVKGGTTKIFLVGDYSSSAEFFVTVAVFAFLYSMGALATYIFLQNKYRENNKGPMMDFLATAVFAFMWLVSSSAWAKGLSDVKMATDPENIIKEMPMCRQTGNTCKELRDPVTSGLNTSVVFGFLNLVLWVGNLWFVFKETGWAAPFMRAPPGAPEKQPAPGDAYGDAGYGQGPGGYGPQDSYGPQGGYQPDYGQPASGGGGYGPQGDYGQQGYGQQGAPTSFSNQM

Target: T1, BRI2 (integral membrane protein 2B) (rat (endogenous in brain)) (UniProt Q5XIE8)
T1 sequence: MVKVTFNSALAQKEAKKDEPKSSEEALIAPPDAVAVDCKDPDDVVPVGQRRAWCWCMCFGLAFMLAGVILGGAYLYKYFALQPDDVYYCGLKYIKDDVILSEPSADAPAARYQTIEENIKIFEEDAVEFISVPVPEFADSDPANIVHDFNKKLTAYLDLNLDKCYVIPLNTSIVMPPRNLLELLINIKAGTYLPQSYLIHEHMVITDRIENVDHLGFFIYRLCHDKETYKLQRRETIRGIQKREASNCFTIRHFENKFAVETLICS
Assay: co-IP; rat cerebral cortex lysate; IP with anti-BRI2, anti-PSD-95, anti-synaptophysin or anti-GAP-43 antibody on Dynabeads Protein G; SDS-PAGE and immunoblot; mock IPs with mouse or rabbit IgG

Substance: Synaptophysin (from UniProt P07825 1-307)
- binding: binds
